Measurements published in publication PMC5733394.
No constants are given. Whether binding was seen depends on the method and setting. Some entries that bind do so weakly or less than the wild type.

Sequences of proteins named here, by UniProt entry; tags and fusion partners are left off. Residues count along the entry.
UniProt G3I8R9, residues 19-654: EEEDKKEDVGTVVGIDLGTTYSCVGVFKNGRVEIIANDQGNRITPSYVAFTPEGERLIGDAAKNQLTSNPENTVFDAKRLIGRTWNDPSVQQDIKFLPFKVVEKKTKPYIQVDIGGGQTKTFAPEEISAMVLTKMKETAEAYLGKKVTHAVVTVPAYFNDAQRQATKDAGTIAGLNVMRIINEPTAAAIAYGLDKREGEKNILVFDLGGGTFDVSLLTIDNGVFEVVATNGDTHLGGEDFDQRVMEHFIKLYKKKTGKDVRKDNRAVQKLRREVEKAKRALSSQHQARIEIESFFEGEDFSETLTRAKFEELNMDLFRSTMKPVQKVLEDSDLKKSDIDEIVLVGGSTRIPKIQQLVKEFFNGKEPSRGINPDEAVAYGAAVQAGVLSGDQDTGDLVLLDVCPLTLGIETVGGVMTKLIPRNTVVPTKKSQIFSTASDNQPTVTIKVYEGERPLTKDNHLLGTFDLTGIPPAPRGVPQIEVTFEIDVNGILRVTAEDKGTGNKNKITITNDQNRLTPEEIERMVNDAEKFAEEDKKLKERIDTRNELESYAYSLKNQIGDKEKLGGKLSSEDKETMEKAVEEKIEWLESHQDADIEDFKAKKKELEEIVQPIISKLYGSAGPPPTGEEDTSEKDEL

Molecular target: BiP (purified, wild type) (UniProt G3I8R9)
Assay: FRET or BRET; kinetic with competitor; 0.2 μM donor and acceptor, 50 μM BiP, 2.5 μM Smt3-ERdj4-MBP, 2 mM ATP with regeneration system; at 60 min CH1 heptapeptide and/or 2.5 μM ERdj6 J domain added; both purified

## HTFPAVL [CH1 heptapeptide]
  binding: binds
